## Library screen at single concentrations

From ChEMBL document CHEMBL3988442, “University of Dundee, Small-Polar-MMV Screening Library” (2021).

Values are the deposited “Percent Effect”, in %.
The record does not define 0% and 100%; most values in the screen are far below 50% and negative numbers occur (in some assays of this library far below -100).
This is an unselected part of the compounds tested.
Two or more numbers in one place are separate tests of the same structure; such repeats can differ widely.

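Whole-cell growth test on Mycobacterium tuberculosis, read after 3 days in glucose-containing 7H9 medium; the read-out is not stated. Concentration: 50 µM. Direction is inferred from retests: higher values go with more growth inhibition. Of about 69,000 compounds tested this way, about 760 (1.1%) reached 50% or more in at least one test.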

Compound | effect
CC(C)c1ccsc1C(=O)N1CCCN(Cc2cscn2)CC1 | -23.09
Cn1c(Cn2ncc(N3CCCCC3)cc2=O)nc2ccccc21 | -71.83 & -5.832
Cc1nn(C)c(Cl)c1C1CCCN1CC(=O)N1CCOCC1 (centres undefined) | -3.115
CCC(NC(=O)C1CCN(S(C)(=O)=O)CC1)c1ccc(C)cc1C (centres undefined) | -0.3349
COCC(=O)Nc1ccc(N2CCC(OC)CC2)c(C(F)(F)F)c1 | 31.71
[H][C@@]12CCCO[C@]1([H])[C@H](NC(=O)N(C)C)CN2S(C)(=O)=O | -22.4 & -11.29
CCn1ccnc1CN1CCCC1c1noc(C2CC2)n1 (centres undefined) | -30.03
O=C(CN(CC1CCC1)CC(F)(F)F)N1CCOCC1 | -0.4672
COc1cc(CCC(=O)NCC2CC2)ccc1OCC(F)(F)F | 10.61
CCN1CC2(CC1=O)CN(Cc1ccoc1)CCN(C(=O)C(C)C)C2 (centres undefined) | 11.37
CN1CCc2nc(C3CCCN(S(=O)(=O)N4CCCC4)C3)ncc2C1 (centres undefined) | -22.79
COc1c(C(=O)N2CCNC(=O)C2)cnc2c1c(C)nn2C | -32.51
c1cnc2nc(N3CCc4c(ncn4C4CC4)C3)ccc2n1 | 8.351
Cc1cc(CN(C)CCN(C)c2ccccc2)no1 | -5.236
CCNC(=O)NC(=O)C(C)Nc1ccccc1OCCOC (centres undefined) | 22.32
CC(C)n1ccnc1CN1CCCN(C(=O)CC2CCCO2)CC1 (centres undefined) | -6.063
C[C@H](c1ccc(F)cc1)n1c(C2CCN(C)CC2)n[nH]c1=O | -22.52
Cc1nc(C)n(CC2CCCN2Cc2cn3ccccc3n2)n1 (centres undefined) | 6.507
Cc1nccn1-c1cc(CNC(=O)CCNC(=O)C2CCCC2)ccn1 | -3.977
O=C(O)C(F)(F)F.[H][C@@]12CCN(CC3CCOCC3)C[C@@]1([H])[C@H](C(=O)N1CCCO1)CCO2 | -13.58
NC(=O)CCNC(=O)Cc1cccc(I)c1 | -38.11
CN(C)C(=O)N1CCc2ccc(=O)[nH]c2CC1 | -6.614 & -13.31
CS(=O)(=O)NCCCn1ccc2ccccc21 | 11.95 & 16.83
CNC(=O)c1cccnc1NCCOc1ccc(CC#N)cc1 | 18.09
Cc1nccc(-c2cccc(NCC(=O)N3CCNC(=O)C3)c2)n1 | -2.806
CN1CCC/C1=N\S(=O)(=O)c1ccc(NC(=O)CCc2cccs2)cc1 | 2.95
Cc1c(C(C)NC2CCOCC2)cnn1-c1ccc(F)cc1F (centres undefined) | -1.998
CC(C)c1cc(NC(=O)CN2CCNC(=O)C2)on1 | -10.15
O=C(c1ccc(C(F)(F)F)nc1)N1CCCC(n2cncn2)C1 (centres undefined) | 4.201
CS(=O)(=O)NCC(=O)NC(Cc1ccccc1)C1CCCC1 (centres undefined) | 37.67
Cc1cc(CN(C)C(=O)NC2CCCN(c3ncccn3)C2)no1 (centres undefined) | -15.95
CCS(=O)(=O)N1CCC2(CN(c3cc(OC)ncn3)C2)C1 | -11.42 & -48.63
Cc1n[nH]c(C)c1C1COCCN1C(=O)Cc1ccccc1F (centres undefined) | 6.037
Cc1nc(C)n(CC2CCCCN2CC(=O)NC(C2CC2)C2CC2)n1 (centres undefined) | -9.616
CCc1nsc(NC2CCOC3(CCCC3)C2)n1 (centres undefined) | 37.36
COC(=O)c1ccc(N2CCN(CCN3CCOCC3)C(C)C2)cc1 (centres undefined) | -12.12
C1=C(c2c[nH]c3ncccc23)CCN(Cc2nnc(C3CC3)o2)C1 | 1.712
Cc1cc2n(n1)CC(CNC1CCN(c3ccc(F)cc3)CC1)CN2 (centres undefined) | 25.58
Cc1nc(C)n(CC2CCCCN2Cc2nnc(-c3ccco3)o2)n1 (centres undefined) | 6.083
COc1ccc(C(=O)N2C[C@@H](CN3CCCC3)[C@@H](CO)C2)c(C)c1 | -0.4261
Cn1cc(-c2cc(C(F)(F)F)nn2CCC#N)cn1 | 20.6
CCSc1ccccc1C(=O)N1CC2(COC(C)(C)OC2)C1 | 5.116 & -7.204
Cc1nn(C)c(N(C)C)c1CNCc1cccnc1N1CCOCC1 | 6.294
CCCOc1ccccc1CCCNc1ncnc2oc(C)nc12 | 47.23 & 42.12
CC(C)n1[nH]c(=O)c2c1NC(=O)CC2c1ccncc1 (centres undefined) | -0.716
O=C(C1CCCC1)N1CC2(CCN(C3COC3)C2)OCc2ccccc21 (centres undefined) | -6.068
CCn1c(C)cc(C(=O)N2CCCC(n3nc(C)nc3C)C2)c1C (centres undefined) | -3.673
CC(C)CC1SCC(=O)Nc2c1cnn2C(C)C (centres undefined) | 14.55
CCC(C)(CNC(=O)Nc1nncs1)N1CCOCC1 (centres undefined) | -13.98 & -3.029
NCCCC(=O)NCC1(O)CCCN(c2ccnc3cccnc23)C1 (centres undefined) | 10.14
Cc1ccc(CNC(=O)Nc2nnc(C3CC3)s2)n1C | -19.97
C1CC(CN2CCOCC3(CCN(C4CCOCC4)C3)C2)CCO1 (centres undefined) | 0.05158
Cn1cnc2c1CCN(Cc1nc(-c3ccco3)no1)C2 | 0.2913 & -2.314
Cc1ccc(C(=O)N2CCC3(CCC(=O)N(CC(N)=O)C3)CC2)c(O)c1 | -26.17 & -5.704
Cc1ccccc1S(=O)(=O)N1CCCCC1c1ccn[nH]1 (centres undefined) | 6.651
CCOCC1CN(Cc2cccnc2)Cc2nn(C)cc21.O=C(O)C(F)(F)F.O=C(O)C(F)(F)F (centres undefined) | -15.56
CCn1ccnc1CN1CCCN(C(=O)c2cnn(C)c2)CC1 | -5.261
COc1ccc(Cl)cc1CCNC(=O)N(C)CC1CCOC1 (centres undefined) | 16.33
CCc1ncc(C(=O)N2CCOCC2c2c(C)n[nH]c2C)s1 (centres undefined) | -3.253
O=C(c1nn(-c2ccccc2F)cc1O)N1CCCSCC1 | 20.61 & 22.66
Cc1n[nH]c(=O)c2c(NC(=O)CN3CCOCC3)oc(C)c12 | -15.5
c1cncc(-c2nnc([C@H]3CCN(CC4CCCCC4)C3)o2)c1 | 41.2 & 20.46
[H][C@@]12CCN(C(=O)C3CCC3)[C@]1([H])C(=O)N(c1ccc(F)cc1)C(=O)N2 | -65.69 & -22.23
CC(C)c1cc(C(=O)N2CCc3nc(C4CCCN4)ncc3C2)cs1.Cl (centres undefined) | -9.762
CCCn1cc(-c2ccnc(NC3CCCc4ccccc43)n2)c(C)n1 (centres undefined) | 22.81
O=C(O)C(=O)O.c1csc(-c2noc(C3CN(Cc4ccc5c(c4)CCO5)C3)n2)c1 | 27.86 & 20.15
Cc1ccsc1C(=O)N1CCC2(CC(N(C)c3ccncn3)C2)C1 (centres undefined) | 0.1406
CN1CCC(Cc2cc(Nc3ncccn3)ncn2)CC1 | 15.45
Cc1ccc(CN2CCN(CC(=O)Nc3ccc4nsnc4c3)CC2)o1 | 18.11 & 37.83
CCn1nc(C)c(C(C)Nc2cc(C3CCNCC3)nc(C)n2)c1C (centres undefined) | -11.41
CCc1noc(C)c1C(=O)N(C)Cc1ncc(C)c(OC)c1C | 23.79
Cc1cc(C)n(C2CCCN(C(=O)Cc3cccs3)C2)n1 (centres undefined) | 50.81
CN(CCCOc1ccccc1)S(=O)(=O)N1CCOCC1 | 18.13 & 2.197
CC(C)(C)OC(=O)NC1CCC(NC(=O)c2ccc[nH]2)CC1 (centres undefined) | -14.78
CN(CCn1cccn1)S(=O)(=O)N1CCCC1c1ccco1 (centres undefined) | 21.9

For reference, 7 entries once more:

- CN1CCC/C1=N\S(=O)(=O)c1ccc(NC(=O)CCc2cccs2)cc1 : 2.95%
- Cc1n[nH]c(=O)c2c(NC(=O)CN3CCOCC3)oc(C)c12 : -15.5%
- Cc1ccc(C(=O)N2CCC3(CCC(=O)N(CC(N)=O)C3)CC2)c(O)c1 : -26.17% & -5.704%
- O=C(C1CCCC1)N1CC2(CCN(C3COC3)C2)OCc2ccccc21 (centres undefined) : -6.068%
- CC(C)CC1SCC(=O)Nc2c1cnn2C(C)C (centres undefined) : 14.55%
- CCn1ccnc1CN1CCCN(C(=O)c2cnn(C)c2)CC1 : -5.261%
- CCC(C)(CNC(=O)Nc1nncs1)N1CCOCC1 (centres undefined) : -13.98% & -3.029%